# About 6,200 (1.8%) of roughly 340,000 compounds were called active. The shares of active, inactive and inconclusive entries below differ from those in the screen. Calls follow the shape of the dose curve; as a rule, active = well fitted activation curve with a large enough effect; inconclusive = small, poorly fitted or top-dose-only effect; inactive = no such curve, though single readings can be large or run the other way. Potencies of inconclusive entries are doubtful fits and often do not repeat.
# Assay: A quantitative high throughput screen for small molecules that induce DNA re-replication in SW480 colon adenocarcinoma cells. Also: nearly all actives have a fitted effect of over 55% in size. As to re-replication activation: % of control where 0% means no effect.
# Conditions: Hoechst DNA content imaging, 48 h; re-replication activation: at 46.1 µM (top of the series) unless noted
# Method in brief: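 Cells (250 per well) received 23 nL compound or DMSO by pin tool and were kept 48 hr at 37 C, 5% CO2. Nuclei were then stained with Hoechst for 40 min and scanned for DNA content.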
# Potency is read from the fitted curve at half-maximal effect.
Structure (SMILES),Potency,re-replication activation
O=C1c2ccccc2C(=O)N1CCc1c[nH]c2ccccc12,inactive,–
CC(=O)Nc1ccc(Oc2sc(C(=O)c3ccccc3)c(N)c2C#N)cc1,"inconclusive: 20.6 µM [activator, single point]",–
O=S(=O)(c1ccc(Br)s1)N1CCC(Cc2ccccc2)CC1,"inconclusive: 16.4 µM [activator, partial curve, poor fit]",–
Cc1nn2c(NCc3cccnc3)c3c(nc2c1-c1ccccc1)CCC3,"inconclusive: 25.9 µM [activator, partial curve, poor fit]",–
Cc1ccc2[nH]c(C(=O)Nc3ccc(F)cc3)cc2c1,"inconclusive: 0.103 µM [activator, full curve, poor fit]",–
Cc1ccc(C(=O)Nc2ccccc2)cc1S(=O)(=O)N1CCN(C)CC1,"inconclusive: 14.6 µM [activator, single point]",–
O=C(COC(=O)c1ccc(F)cc1)NCC1COc2ccccc2O1 (stereo not drawn),"inconclusive: 32.6 µM [activator, single point]",–
CCOC(=O)c1c(C)[nH]c(C(=O)C(C)OC(=O)c2cccc(OCc3c(C)noc3C)c2)c1C (stereo not drawn),"inconclusive: 23.1 µM [activator, single point]",–
Cc1cccc(NC(=O)c2cccc(C(=O)Nc3cccc(C)c3)n2)c1,–,inconclusive: 27.8% [activator]
O=C(COC(=O)c1ccc([N+](=O)[O-])s1)c1ccc[nH]1,inactive,–
CCOC(=O)C(Nc1ccc2ccccc2c1)C(=O)OCC,active: 13 µM,–
COc1cccc(C(=O)NCCSc2c(C)[nH]c3ccccc23)c1OC,inactive,–
CCOC(=O)C1=C(C)Nc2ccccc2N=C1NC(=O)C1CCN(C(=O)c2ccccc2C)CC1,inactive,–
COc1ccc(C(=O)Nc2c(C)cc(C)cc2C)cc1OC,"inconclusive: 29.1 µM [activator, partial curve, poor fit]",–
COc1ccc(C[C@H]2CN3C(=NC[C@@H]3C(C)C)N2C[C@H](C)NC(=O)c2ccc(C)c(Br)c2)cc1,inactive,–
Cc1onc(-c2ccccc2Cl)c1C(=O)NC(=S)Nc1ccc(C(C)C)cc1,inactive,–
N#CC(C(N)=O)=C1CCCCC1,"inconclusive: 29.1 µM [activator, single point]",–
CCOC(=O)c1c(NC(=O)CCS(=O)(=O)c2ccccc2)sc2c1CC(C)(C)NC2(C)C,"inconclusive: 29.1 µM [activator, single point]",–
Cc1cc(C)n(CCCN2CCC(C(=O)Nc3cccc(-c4cccc(F)c4)c3)CC2)n1,"inconclusive: 20.6 µM [activator, single point]",–
CCCCC[n+]1ccn(-c2nc3ccccc3nc2[N-]S(=O)(=O)c2ccc(C)cc2)c1,"inconclusive: 23.1 µM [activator, partial curve, poor fit]",–
c1cc2[nH]snc2c2nc(C3CC3)nc12,inactive,–
COc1cccc(NC(=O)Nc2nnc(-c3ccccc3SCc3ccccc3)s2)c1,"inconclusive: 18.4 µM [activator, single point]",–
O=C(/C=C/c1ccc(Cl)cc1Cl)NCCN1CCOCC1,"inconclusive: 16.4 µM [activator, single point]",–

Structure (SMILES),Potency,re-replication activation
Cc1ccccc1Nc1nc(N)nc(COc2ccc(C#N)cc2)n1,"inconclusive: 10.3 µM [activator, partial curve, poor fit]",–
CC(=O)Nc1ccc(NC(=O)C(C)OC(=O)CCc2c[nH]c3ccccc23)cc1 (stereo not drawn),inactive,–
O=C(Nc1cccc(Cl)c1)Nc1ccc(Br)cc1F,"inconclusive: 18.4 µM [activator, partial curve, poor fit]",–
Cc1noc(C)c1NC(=O)Nc1ccc2c(c1)CC(=O)N([C@H](C)CO)C[C@@H](C)[C@H](CN(C)CC1CCCCC1)O2,inactive,–
CCCCCCSc1cccc(-c2nc3ccc(Cl)cn3c2NCc2ccccc2)c1,inactive,–
Cc1noc(C)c1C(=O)Nc1ccc2c(c1)CCC2,"inconclusive: 2.91 µM [activator, single point]",–
O=C(N/N=C/c1cccc(C(F)(F)F)c1)c1cc2c(s1)-c1ccccc1CC2,"inconclusive: 29.1 µM [activator, single point]",–
CCc1nnc(NC(=O)CSc2nnc(CNC(=O)c3ccc(OC)c(OC)c3)o2)s1,"inconclusive: 1.16 µM [activator, single point]",–
Cc1ccc(C(=O)COC(=O)CSc2cccc3cccnc23)c(C)c1,"inconclusive: 29.1 µM [activator, single point]",–
CCOc1cccc(/C=C/c2ccc3ccccc3n2)c1OC(C)=O,"inconclusive: 20.6 µM [activator, single point]",–
COCCN(CCOc1cc(C)cc(C)c1)Cc1ccc(Cl)cc1,"inconclusive: 16.4 µM [activator, single point]",–
CCCNC(=S)Nc1cc2oc3ccccc3c2cc1OC,"inconclusive: 29.1 µM [activator, single point]",–
CCOC(=O)NC(NS(=O)(=O)c1ccccc1)(C(=O)OCC)C(F)(F)F (stereo not drawn),"inconclusive: 29.1 µM [activator, single point]",–
CCC(Oc1ccccc1)C(=O)NCCCN1CCOCC1 (stereo not drawn),inactive,–
Cc1c(O)ccc2cc(S(=O)(=O)c3ccccc3)c(=O)oc12,active: 1.84 µM,–
Cc1ccccc1OCC(=O)OCC(=O)c1ccc(-c2ccccc2)cc1,inactive,–
O=C(CN1C(=O)/C(=C\c2ccc(F)cc2)Oc2ccccc21)N1CCN(c2ccccn2)CC1,inactive,–
Cc1ccc(NC(=O)CCCC2CCCCC2)c(O)c1,"inconclusive: 23.1 µM [activator, single point]",–
CCN(CC)c1ccc(S(=O)(=O)N2CCOCC2)cc1NC(=O)CSc1nnc(N)s1,"inconclusive: 23.1 µM [activator, single point]",–
Cc1cc(C)c(C(=O)CC(=O)c2cccnc2)c(C)c1,"inconclusive: 10.3 µM [activator, partial curve, poor fit]",–
CCN(CC)C1CCN(C(=O)c2cc(COc3ccc(-n4cncn4)cc3)on2)C1 (stereo not drawn),"inconclusive: 29.1 µM [activator, single point]",–
N#CCCN(C(=O)COc1ccc(Br)cc1F)c1ccc(F)cc1,inactive,–
CCC(C)(c1ccc(C(=O)OC)s1)c1ccc(C(=O)OC)s1,inactive,–

# 13 entries from above, with bars between the fields.
Structure (SMILES) | Potency | re-replication activation
Cc1nn2c(NCc3cccnc3)c3c(nc2c1-c1ccccc1)CCC3 | inconclusive: 25.9 µM [activator, partial curve, poor fit] | –
CCOC(=O)c1c(C)[nH]c(C(=O)C(C)OC(=O)c2cccc(OCc3c(C)noc3C)c2)c1C (stereo not drawn) | inconclusive: 23.1 µM [activator, single point] | –
O=C(COC(=O)c1ccc([N+](=O)[O-])s1)c1ccc[nH]1 | inactive | –
COc1ccc(C(=O)Nc2c(C)cc(C)cc2C)cc1OC | inconclusive: 29.1 µM [activator, partial curve, poor fit] | –
N#CC(C(N)=O)=C1CCCCC1 | inconclusive: 29.1 µM [activator, single point] | –
CCOC(=O)c1c(NC(=O)CCS(=O)(=O)c2ccccc2)sc2c1CC(C)(C)NC2(C)C | inconclusive: 29.1 µM [activator, single point] | –
Cc1ccccc1Nc1nc(N)nc(COc2ccc(C#N)cc2)n1 | inconclusive: 10.3 µM [activator, partial curve, poor fit] | –
CC(=O)Nc1ccc(NC(=O)C(C)OC(=O)CCc2c[nH]c3ccccc23)cc1 (stereo not drawn) | inactive | –
O=C(Nc1cccc(Cl)c1)Nc1ccc(Br)cc1F | inconclusive: 18.4 µM [activator, partial curve, poor fit] | –
Cc1noc(C)c1NC(=O)Nc1ccc2c(c1)CC(=O)N([C@H](C)CO)C[C@@H](C)[C@H](CN(C)CC1CCCCC1)O2 | inactive | –
Cc1ccc(NC(=O)CCCC2CCCCC2)c(O)c1 | inconclusive: 23.1 µM [activator, single point] | –
CCN(CC)c1ccc(S(=O)(=O)N2CCOCC2)cc1NC(=O)CSc1nnc(N)s1 | inconclusive: 23.1 µM [activator, single point] | –
CCN(CC)C1CCN(C(=O)c2cc(COc3ccc(-n4cncn4)cc3)on2)C1 (stereo not drawn) | inconclusive: 29.1 µM [activator, single point] | –

# (further entries)

Structure (SMILES),Potency,re-replication activation
C/C(CC(=O)N1CCCC1)=N\NC(=O)c1cc2ccccc2cc1O,"inconclusive: 29.1 µM [activator, single point]",–
COc1ccc(Br)cc1CNC(=O)C1CCCN(c2nc3ccccc3o2)C1 (stereo not drawn),"inconclusive: 29.1 µM [activator, single point]",–
CC(=O)Nc1ccc(NC(=O)CSc2ncc(C(=O)Nc3ccc(F)cc3)c(=O)n2C)cc1,"inconclusive: 18.4 µM [activator, single point]",–
CCOC(=O)c1c(CN2CCNCC2)nc2ccc(Cl)cc2c1-c1ccccc1,"inconclusive: 23.1 µM [activator, single point]",–
Cc1cc(OCCCC(=O)Nc2nnc(C3CC3)s2)ccc1Cl,"inconclusive: 25.9 µM [activator, single point]",–
COCCN=c1scc(-c2ccco2)n1/N=C/c1ccc(O)c(O)c1O,"inconclusive: 23.1 µM [activator, single point]",–
CCN(CC)CCCNC(=O)c1cc(Sc2nnc(C)s2)nc2ccccc12,inactive,–
CCSc1cnn(-c2ccccc2)c(=O)c1Cl,"inconclusive: 29.1 µM [activator, single point]",–
CCOc1ccc(OCC(=O)Nc2cccc(S(=O)(=O)NC3=NCCC3)c2)cc1,"inconclusive: 29.1 µM [activator, single point]",–
CCCCCCCC(=O)NC(Nc1ccccc1OC)C(Cl)(Cl)Cl (stereo not drawn),"inconclusive: 20.6 µM [activator, single point]",–
CC1CCc2sc(C(=O)N/N=C/C3CCCCC3)cc2C1 (stereo not drawn),"inconclusive: 18.4 µM [activator, partial curve, poor fit]",–
O=C(Cn1c(=O)oc2ccccc21)Nc1ccc(Cl)cc1,inactive,–
Cc1cccn2c(=O)c3cc(C(=O)N4CCN(Cc5ccccc5)CC4)sc3nc12,"inconclusive: 4.11 µM [activator, full curve]",–
O=C1c2ccccc2NC(c2ccc(-c3ccc(F)cc3)o2)N1O (stereo not drawn),"inconclusive: 29.1 µM [activator, single point]",–
Cc1ccc(NC(=O)Cn2c(=O)c3cccn3c3ccccc32)cc1,"inconclusive: 29.1 µM [activator, single point]",–
CC(C)CNC(=O)C(=O)Nc1cc2c3c(c1)C(C)C(=O)N3CCC2 (stereo not drawn),inactive,–
CC(C)Cn1c(N2CCN(CC(=O)Nc3ccc(Cl)cc3)CC2)nc2ccccc21,"inconclusive: 29.1 µM [activator, single point]",–
c1ccc(CN=C(NCc2ccccc2)NCc2ccccc2)cc1,"inconclusive: 29.1 µM [activator, single point]",–
Cc1cccc(N2CCN(C(=O)Cn3cccc3C(=O)c3ccccc3)CC2)c1C,"inconclusive: 20.6 µM [activator, single point]",–
Cn1c(C(=O)Nc2ccc(Cl)cc2)cc2cc(Cl)ccc21,"inconclusive: 0.0231 µM [activator, full curve, poor fit]",–
COc1ccc(-n2c(SC3CCOC3=O)nc3ccccc3c2=O)cc1Cl (stereo not drawn),"inconclusive: 0.731 µM [activator, partial curve, poor fit]",–
O=C(c1ccccc1)N(NC(=O)C(O)(c1ccccc1)c1ccccc1)c1cccc(F)c1,"inconclusive: 29.1 µM [activator, single point]",–
